According to patent publication US11766430B2, “Methods of using a phenoxypropylamine compound to treat pain” (Minerva Neurosciences, Inc., priority 2018, dated 2023):
“And” between values parts separate entries of the source, which are not always exact repeats. Equal entries are not always repeated. This continues a long series; more values of the same kind are listed elsewhere.

Tested on: carrageenan-induced mechanical hyperalgesia in rats
Experiment: Carrageenan-induced mechanical hyperalgesia, paw pressure test, time course to 240 min (Example 2)
Format: in vivo, male Sprague-Dawley rats
Conditions: 1 mg/kg i.p., hydrochloride
Procedure: In this model, inflammation is induced by intraplantar injection of carrageenan (2%) into the right hindpaw of the rat. Three hours later, reaction thresholds are measured using the paw pressure test. Pressure is gradually applied to both hind paws (inflamed and control) of the rat, and reaction thresholds are determined as the pressure (g) required to elicit paw withdrawal or vocalization. Morphine (3 mg/kg, s.c.) was used as a positive control.
The experiments in this study used fifty (50) male Sprague-Dawley rats (SPF status, Janvier, France), each weighing 204-260 grams. The rats were housed in a temperature (20-24° C.) and relative humidity (45%-65%) controlled room and acclimated to an artificial day/night cycle of 12 hours light (6.30 a.m. to 6.30 p.m.)/12 hours darkness. Rats had free access to sterilized tap water and were fed ad libitum with pelleted complete diet (reference A04, S.A.F.E.). Rats were housed 4 per cage (cages Type E) and were acclimated for a period of at least 5 days before any testing. Each rat was identified by tail markings. Based on the SPF status of the animal facilities, there is no reason to expect that contaminants were present in the food, water or bedding, at levels capable of interfering with the results of the tests.
Pain Test: Static mechanical hyperalgesia was assessed using the Paw Pressure test or Randall & Selitto test (Randall, L. O. and Selitto, J. J., A method for measurement of analgesic activity on inflamed tissue, Arch Int Pharmacodyn, 1957(111): 409-419). This test requires the application of an increasing pressure on the hind paws between a flat surface and a blunt pointer. This test is usually used with animals with one hind paw inflamed by an injection or injured by ligation, and one normal hind paw, to evaluate drugs for analgesic action. The apparatus exerts a steadily increasing force and reaction threshold is determined as the pressure (g) required to elicit paw withdrawal and/or vocalization. In the experiment, animals were gently handled by the experimenter and static mechanical hyperalgesia was assessed. Each reaction threshold measurement was done for both hind paws.
Five (5) experimental groups of 10 rats each were used. Each group was first injected with of 100 μL of a 2% carrageenan suspension in the plantar aspect of the right hindpaw. Three hours after carrageenan injection, paw withdrawal threshold was measured using the paw pressure test (Baseline). The 5 groups were then administered the following: • Group 1: vehicle (0.5% HPMC), i.p., solution (negative control); • Group 2: MIN-117 (0.01 mg/kg, i.p.) in 0.5% HPMC, suspension; • Group 3: MIN-117 (0.1 mg/kg, i.p.) in 0.5% HPMC, suspension; • Group 4: MIN-117 (1 mg/kg, i.p.) in 0.5% HPMC, suspension; and • Group 5: morphine (3 mg/kg, s.c.) in 0.9% NaCl, solution (positive control).
After administering vehicle, MIN-117, or morphine, the antihyperalgesic effect of the compounds was evaluated using the paw pressure test at 0 min. (T0), 30 min., 60 min., 120 min., and 240 min.
Vehicle and MIN-117 were administered intraperitoneally at 10 mL/kg. Morphine was subcutaneously administered at 5 mL/kg. Dosing and testing were performed in a random order by a blinded experimenter except for the morphine-treated group. Doses were expressed in terms of free active substance. Rats were sacrificed at the end of the experiment by CO2 inhalation pending subsequent removal by a certified company.
Results were assessed as: the paw withdrawal threshold (mean±s.e.m.) in grams of contact pressure for each group, calculated from individual paw withdrawal thresholds; the percentage of variation of the paw withdrawal threshold calculated from the mean value of the vehicle-treated group; and/or the percentage of activity. To determine a statistical effect of the test substance and the reference substance, data were analyzed by a non-parametrical test. The significance level was p<0.05.

## Cc1nnc(-c2cc3c(OC[C@@H](O)CN4CCC(c5ccc(Cl)c(Cl)c5)CC4)cccc3o2)o1.Cl [MIN-117, (2S)-1-(4-(3,4-dichlorophenyl)piperidin-1-yl)-3-((2-(5-methyl-1,3,4-oxadiazol-2-yl)benzofuran-4-yl)oxy)propan-2-ol hydrochloride]
30 min
  Nociceptive threshold, control paw, individual rats: 320 g (4×) and 300 g and 360 g (2×) and 400 g and 440 g and 420 g
  Nociceptive threshold, injured paw, individual rats: 160 g (2×) and 180 g (4×) and 140 g and 220 g and 200 g (2×)
60 min
  Nociceptive threshold, control paw, individual rats: 360 g (4×) and 320 g (2×) and 380 g and 400 g and 520 g and 480 g
  Nociceptive threshold, injured paw, individual rats: 180 g (2×) and 220 g (3×) and 140 g and 200 g and 240 g (2×) and 280 g
120 min
  Nociceptive threshold, control paw, individual rats: 420 g (2×) and 360 g (2×) and 400 g (2×) and 320 g and 340 g and 440 g and 460 g
  Nociceptive threshold, injured paw, individual rats: 240 g (2×) and 200 g (2×) and 220 g (3×) and 260 g (3×)
240 min
  Nociceptive threshold, control paw, individual rats: 360 g (3×) and 320 g and 280 g and 420 g (2×) and 340 g and 440 g and 400 g
  Nociceptive threshold, injured paw, individual rats: 180 g (6×) and 200 g and 160 g and 220 g (2×)
Baseline
  Nociceptive threshold, control paw, individual rats: 340 g (2×) and 360 g (3×) and 420 g (2×) and 440 g and 380 g and 320 g
  Nociceptive threshold, injured paw, individual rats: 220 g (3×) and 160 g (2×) and 140 g and 200 g (2×) and 180 g (2×)
